Laboratory results from PubChem BioAssay AID493014 (National Center for Advancing Translational Sciences (NCATS), 2011).
Screen size: about 340,000 compounds; about 170 (0.05%) were called active. Inconclusive means that the source gave no clear call. Such entries were picked first, then a sample of the others. Calls follow the shape of the dose curve; as a rule, active = well fitted inhibition curve with a large enough effect in the signal ratio, with a control signal flat (not every such curve was filed as active); inconclusive = small, poorly fitted or top-dose-only effect, or effect the other way, or a change in a side signal; inactive = flat fitted curve, though single readings scatter; the % refers to the signal ratio. Potencies beside an inconclusive call are fits to weak or partial responses and may not hold up.

test: qHTS Assay to Find Inhibitors of Chronic Active B-Cell Receptor Signaling; conditions: ABC-DLBCL IkBa-CBG/CBR reporter, luminescence ratio (green luciferase fused to IkBa over red control in TMD8 lymphoma cells), 4 h; activity change, negative = inhibition: at 46.1 µM (top of the series) unless noted;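 as to activity change, negative = inhibition: plate controls were basal doxycycline-induced cells for no effect and cells given 10 µM MG132 for full effect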
Procedure, shortened: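 Compounds up to 46 uM were incubated four hours with TMD8 cells whose green CBG68 luciferase is fused to IkappaBalpha; red CBR luminescence normalised the signal, and concentration-effect curves were fitted to fusion, red and ratio data.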
Potency is read from the fitted curve at half-maximal effect.

Structure (SMILES) | Potency | activity change, negative = inhibition
CCS(=O)(=O)Nc1cc(OC)c(OC)cc1Cc1nccc2cc(OC)c(OC)cc12 | inconclusive: 14.1 µM [falling, partial curve, poor fit] | 
CC(CCc1ccccc1)NC(=O)Cc1ccccc1 (stereo not given) |  | inconclusive: 5.64%
COc1ccccc1N(CC(=O)N(c1ccccc1)C(C)C)S(=O)(=O)c1cccs1 |  | inconclusive: 8.9%
O=C(NNC1=NCCCCC1)c1cccc([N+](=O)[O-])c1 |  | inactive: 4.71%
Cc1cc(C)nc(Nc2n[nH]c(-c3cccc4ccccc34)n2)n1 | inconclusive: 3.98 µM [falling, single point] | 
COc1cccc(NC(=O)/C=C/c2ccc([N+](=O)[O-])cc2)c1 | inconclusive: 3.55 µM [falling, full curve, poor fit] | 
NS(=O)(=O)c1cccc(NC(=O)CCS(=O)(=O)c2ccc(Cl)cc2)c1 |  | inconclusive: 7.91%
CCOc1ccc(-c2nc(C#N)c(NCC(C)C)o2)cc1 |  | inconclusive: 2.13%
CCOC(=O)c1sc(NC(=O)CN2CC(C)OC(C)C2)nc1C (stereo not given) | inconclusive: 17.8 µM [falling, partial curve, poor fit] | 
O=C(Nc1ccncc1)c1ccc([N+](=O)[O-])cc1Cl |  | inconclusive: -5.76%
O=C(c1cncc(Br)c1)N1CCN(S(=O)(=O)c2ccccc2C(F)(F)F)CC1 |  | inactive: -0.578%
CC1CN(CCOCCSc2ccccc2)CC(C)O1 (stereo not given) |  | inconclusive: 1.62%
O=C(Nc1ccc(Br)c(C(F)(F)F)c1)c1ccc(C(F)(F)F)cc1 |  | inconclusive: 26.6%
C/C=C(/C)C(=O)O[C@@H]1c2cc3c(c(OC)c2-c2c(cc(OC)c(OC)c2OC)[C@@H](OC(C)=O)[C@@H](C)[C@H]1C)OCO3 |  | inactive: -0.101%
Cc1ccc(OC(C)C(=O)N=Nc2c(O)[nH]c3ccc([N+](=O)[O-])cc23)cc1 (stereo not given) |  | inconclusive: 15%
CC(C)(C)c1ccc(C(=O)Nc2cccc(-n3cnnn3)c2)cc1 | inconclusive: 22.4 µM [falling, single point] | 
COc1cccc(N2CCN(CC(=O)c3c(C)[nH]c4ccccc34)CC2)c1 | inconclusive: 1.84 µM [falling, partial curve] | 
O=C(COc1ccccc1)Nc1cccc(-c2nc3cc4ccccc4cc3[nH]2)c1 | inconclusive: 35.5 µM [falling, single point] | 
CCCNc1c(NS(=O)(=O)c2ccc(Cl)s2)c(=O)oc2ccccc12 | inconclusive: 11.2 µM [falling, partial curve, poor fit] | 
CCC(C)NC(=O)/C(=C/c1ccco1)c1ccccc1 (stereo not given) |  | inactive: 1.56%
CCOCC(=O)Nc1nc(-c2ccccc2)c(CC)s1 | inconclusive: 25.9 µM [rising, single point] | 
COCCCNC(=S)N/N=C/c1ccc(N(C)C)cc1Cl | inconclusive: 11.2 µM [falling, partial curve, poor fit] | 
COc1ccc(-n2c(=O)c3c(C)c(C)sc3n(Cc3cccc(F)c3)c2=O)c(OC)c1 |  | inconclusive: -27.6%
O=S(=O)(NCCc1csc2nc(-c3ccc(Cl)cc3)nn12)c1cccs1 | inconclusive: 12.6 µM [rising, partial curve, poor fit] | 
COC(=O)c1ccc(CSc2nnc(SCc3ccc(C(=O)OC)o3)s2)o1 |  | inconclusive: 2.34%

Two entries from above, as labelled records.
CC1CN(CCOCCSc2ccccc2)CC(C)O1 (stereo not given)
  activity change, negative = inhibition: inconclusive: 1.62%
CC(C)(C)c1ccc(C(=O)Nc2cccc(-n3cnnn3)c2)cc1
  Potency: inconclusive: 22.4 µM [falling, single point]

Continued.

Structure (SMILES) | Potency | activity change, negative = inhibition
Cc1ccc(Oc2ccc(Cl)cc2N)cc1 |  | inconclusive: 7.94%
COc1ccc(-c2nnc3ccc(SCC(=O)Nc4nc5ccccc5s4)nn23)cc1OC | inconclusive: 4.11 µM [falling, full curve] | 
CCCc1cc(C(=O)Nc2ccc(C(=O)c3ccc(C)cc3)cc2)n(C)n1 | inconclusive: 20 µM [falling, partial curve, poor fit] | 
CCCCNC(=O)CSc1nc2cc3c(cc2c(=O)n1CCCC(=O)NCc1ccc(OC)cc1)OCO3 |  | inactive: -10%
CCc1ccccc1N(CC(=O)N1CCCCC1)S(=O)(=O)c1ccccc1 |  | inactive: 9.42%
COc1ccccc1-c1cc(C(=O)Nc2cccnc2)no1 |  | inconclusive: 138%
O=C(NC1CCS(=O)(=O)C1)c1cc(-c2ccccc2)nc2ccccc12 (stereo not given) |  | inconclusive: 10.3%
CC(=O)Nc1ccc(NC(=O)Cc2sc(C)nc2-c2ccc(C)cc2)cc1 |  | inconclusive: -0.576%
CCOC(=O)c1sc2nc(C)[nH]c(=S)c2c1C |  | inconclusive: 0.916%
Cc1cc(C(=O)OCC(=O)NCCc2ccc(S(N)(=O)=O)cc2)c2ccccc2n1 |  | inconclusive: 2.97%
CC(=O)Nc1cc2c(cc1Br)OCCO2 |  | inconclusive: 10.8%
O=C1CC(c2cccc(Cl)c2)CC(O)=C1C=NCCCO (stereo not given) |  | inactive: 1.69%
CCn1cnc2c1c(=O)n(CC(=O)NCC(F)(F)F)c(=O)n2Cc1ccccc1 |  | inactive: -0.0016%
Cc1cccc(-n2ncc3c(NCCOCCO)ncnc32)c1 |  | inconclusive: 19%
Cc1ccccc1OCC(O)CN1C(=O)c2ccccc2C1=O (stereo not given) |  | inconclusive: 10.3%
Cc1cccc(NC(=O)CNC(=O)COC(=O)CCS(=O)(=O)c2ccccc2)c1C | inconclusive: 12.6 µM [falling, partial curve, poor fit] | 
O=S(=O)(Nc1ccc(S(=O)(=O)N2CCCC2)cc1)c1ccc(F)cc1 |  | inconclusive: 6.08%
Cc1ccc(SCC(=O)c2c(C)nc3cc(C)ccn23)cc1 |  | inactive: 3.43%
C=C1CCC2[C@](C)(CO)[C@H](O)CC[C@@]2(C)[C@@H]1C/C=C1\C(=O)OC[C@H]1O (stereo not given in full) |  | inconclusive: -15.5%
O=C(N/N=C/c1cccc([N+](=O)[O-])c1)c1cccc(Br)c1 |  | inactive: 0.026%
Cn1nc(C(=O)NC2CCCN(Cc3ccccc3F)C2)c2ccccc2c1=O (stereo not given) | inconclusive: 17.8 µM [falling, single point] | 
COc1ccccc1NC(=O)CC(=O)CSc1nnc(-c2ccc(C)cc2)n1-c1ccccc1 |  | inactive: -5.7%
Cc1cc(C)nc(Oc2ccc(Br)cc2Br)n1 |  | inconclusive: 1.8%
Cc1c(Cc2ccccc2)c(=O)oc2cc(OCC(=O)NCC3CCC(C(=O)O)CC3)ccc12 (stereo not given) | inconclusive: 35.5 µM [falling, single point] | 
CC(O)CN=c1cc(-c2ccccc2)oc2ccc(Cl)cc12 (stereo not given) |  | inconclusive: 13.3%

Structure (SMILES) | Potency | activity change, negative = inhibition
COc1ccc(CNC(=O)c2cc(-c3ccccc3O)n[nH]2)cc1 | inconclusive: 7.31 µM [falling, partial curve] | 
CCCCOc1ccc(C(=O)NNC(=O)C2C3CCC(C3)C2C(=O)O)cc1 (stereo not given) |  | inconclusive: -0.606%
CC1CCCCN1C(=O)c1ccc(OC2CCN(S(=O)(=O)N(C)C)CC2)cc1 (stereo not given) |  | inconclusive: -0.75%
CCC(=O)Nc1ccc(N2CCN(C(=O)c3ccco3)CC2)c(Cl)c1 |  | inactive: -3.34%
O=C(CN1CCC(Cc2ccccc2)CC1)Nc1ccc2c(c1)OCCO2 | inconclusive: 29.1 µM [falling, single point] | 
CC1CCCN(c2ccc(C(=O)Nc3cccnc3)cc2[N+](=O)[O-])C1 (stereo not given) |  | inconclusive: 2.51%
O=C(CSC1=NCCN1)Nc1ccccc1[N+](=O)[O-] | inconclusive: 22.4 µM [falling, single point] | 
O=C(CCCN1C(=O)C(c2ccccc2)Oc2cccnc21)Nc1ccccc1Cl (stereo not given) | inconclusive: 12.6 µM [falling, partial curve, poor fit] | 
COCCCNC(=S)N1CCN(c2nc(-c3cccc(OC)c3)cs2)CC1 |  | inconclusive: -2.99%
O=C(Nc1c2c(nn1-c1ccc(F)cc1)CS(=O)(=O)C2)c1ccc(Br)o1 | inconclusive: 20 µM [falling, single point] | 
CCOc1ccccc1/C=C(\C#N)C(=O)Nc1cccc(C(=O)O)c1 | inconclusive: 14.1 µM [falling, single point] | 
COc1cccc(NC(=S)N2CCc3cc(OC)c(OC)cc3C2COc2ccc3c(C)cc(=O)oc3c2)c1 (stereo not given) |  | inconclusive: 8.66%
Cc1nc(NC(=O)c2ccccc2)sc1C1(C)CC(c2ccccc2F)=NO1 (stereo not given) | inconclusive: 35.5 µM [falling, partial curve, poor fit] | 
Fc1ccc(-n2cc(CNCCc3ccccn3)c(-c3ccccc3Cl)n2)cc1 | inconclusive: 11.2 µM [falling, partial curve, poor fit] | 
CN(C)CCCN(C(=O)CCc1ccccc1)c1nc2ccc(F)cc2s1 |  | inconclusive: -5.17%
NC(=O)C1CCN(C(=O)/C=C/c2cccc(Br)c2)CC1 | inconclusive: 35.5 µM [falling, single point] | 
CCOc1ccccc1NC(=O)c1cc(S(=O)(=O)N2CCC3(CC2)OCCO3)ccc1F | inconclusive: 0.891 µM [falling, full curve, poor fit] | 
O=C(NC(=S)Nc1ccc(-c2ccc(CO)o2)cc1)c1cccs1 |  | inconclusive: -15.1%
Cc1cccc(Cn2c(CN3CCC(C(=O)NC(C)C)CC3)cc3ccccc32)c1 |  | inconclusive: 0.0464%
COC(=O)C(C(=O)OC)C(C)C(C(=O)OC)C(=O)OC |  | inconclusive: -7.88%
COc1ccccc1NC(=O)CSc1nnc(-c2ccoc2C)n1CCc1ccccc1 |  | inconclusive: 5.73%
C[C@@H]1CN([C@H](C)CO)C(=O)c2cccc(NC(=O)Nc3ccc(C(F)(F)F)cc3)c2O[C@H]1CN(C)S(=O)(=O)c1cccs1 |  | inconclusive: 0.809%
O=C(Nc1ccccc1Cl)c1ccc(-c2ccccn2)s1 | inconclusive: 35.5 µM [rising, single point] | 
CN(C1=C(NC(=O)c2ccccc2)C(=O)c2ccccc2C1=O)C1CCS(=O)(=O)C1 (stereo not given) |  | inactive: 17.2%
O=C(/C=C/c1cccc2ccccc12)c1ccncc1 |  | inconclusive: -19.6%

2 records drawn at random from those above:
Structure (SMILES) | Potency | activity change, negative = inhibition
COc1cccc(NC(=S)N2CCc3cc(OC)c(OC)cc3C2COc2ccc3c(C)cc(=O)oc3c2)c1 (stereo not given) |  | inconclusive: 8.66%
O=C(CN1CCC(Cc2ccccc2)CC1)Nc1ccc2c(c1)OCCO2 | inconclusive: 29.1 µM [falling, single point] | 
